These are yes or no findings as the source states them, for the method shown. Binding can be weak; no strength is given. Tags and fused reporters may be left off the sequences shown. For part of these data: In cells and extracts the contact can be indirect.
Experiments:
[1] = target: ApC/EBP (35S-methionine-labeled, in vitro translated) (Aplysia); assay: GST pull-down of 35S-labeled in vitro translated ApC/EBP
c-fos protein = assay: yeast two-hybrid

Binder	binding [1]	binding (c-fos protein)
GST-ApCREB-2 deletion mutant lacking the N-terminal 260 amino acids (protein, not shown: a dimerising Fc or GST; large carriers; small tags and cut ends) DASKRFSPYSRSSKSKQSVKTSDAKAPRKTRTPAQPVPEHVIMEHLDKKDRKKLQNKNAAIRYRMKKKGEAQGIKGEEQELEELNTKLKTKVDDLQREIKYMKNLMEDVCKAKGIQLK	binds	
full-length ApCREB-2 as two-hybrid fusion (pGAD10 clone; pAS1 / pACT2 subclones) (protein, not shown: large carriers) MELDLWSEDFQLAREWGLEMPVVQTDGQFGDLKSTSRHGGDESLSLQPQGATLKLEPFEEDVLGAEWMESSDLGSFLDALGDNHERLHPFESNLLEFTSLITPDDSTVSKDILSSTLQFPTQPVNIPLYASHGAEDFSAETEFENHLSPPDSPEQVAPVINLEPVELTASHMTVISPDGLLGGMELASESLTFTELDFVNFNDSAVGSIGGAEELLGSPLSVDDVESTISFSGPSSPETSQSSIIESSPELYKVISTSSIDASKRFSPYSRSSKSKQSVKTSDAKAPRKTRTPAQPVPEHVIMEHLDKKDRKKLQNKNAAIRYRMKKKGEAQGIKGEEQELEELNTKLKTKVDDLQREIKYMKNLMEDVCKAKGIQLKM		binds
ApCREB-2 C-terminal 118 amino acid peptide (amino acids 260-378, bZIP motif) as two-hybrid fusion (protein, not shown: large carriers) IDASKRFSPYSRSSKSKQSVKTSDAKAPRKTRTPAQPVPEHVIMEHLDKKDRKKLQNKNAAIRYRMKKKGEAQGIKGEEQELEELNTKLKTKVDDLQREIKYMKNLMEDVCKAKGIQLK		binds
